Record: PubChem BioAssay AID686938 (Drosophila RNAi Screening Center, 2013)

Screen: 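Looking for CRAC channel components and the factors controlling them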 (primary screen)
Cells: Drosophila S2R+ cells
Knock-down reagent: long dsRNA against Drosophila genes, about 0.25 µg dsRNA per well, roughly 10,000 cells
Duration: 5 days of knock-down before the calcium assay
Challenge: thapsigargin (SERCA pump blocker) to empty calcium stores; entry signal taken 4 min after adding it
Measurement: 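Duplicate raw fluo-4 intensities per well from a plate reader, at rest and four minutes after thapsigargin emptied calcium stores; entry-to-rest ratio filled for only some wells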
Direction: calcium entry signal: higher = stronger calcium signal after store depletion; resting calcium signal: higher = higher resting calcium signal
Units: calcium entry signal in fluorescence units; resting calcium signal in fluorescence units
Call rule: 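Called when the plate z-score of the entry-to-rest ratio, mean of duplicates, falls below −3; wells with low overall dye signal (Fmax z below −2) or more than five off-targets excluded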
Meaning of the calls: active = strongly reduced calcium entry; inactive = no strong reduction
The deposit covers about 23,000 reagents; this is an unselected part of those that have a named target and a result. Over the whole deposit, 75 (0.33%) are marked active. 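Raw plate signals without normalisation; calls rest on plate z-scores that were not deposited; ratio present for only 364 wells.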 Entries without a mark were called inactive. Not given: the dose of the treatment.

Obsc (Obscurin) [DRSC04301] → calcium entry signal, replicate 1 = 4.77e7; calcium entry signal, replicate 2 = 2.94e7; resting calcium signal, replicate 1 = 2.23e7; resting calcium signal, replicate 2 = 1.48e7
Obsc (Obscurin) [DRSC04302] → calcium entry signal, replicate 1 = 3.85e7; resting calcium signal, replicate 1 = 1.92e7
Obsc (Obscurin) [DRSC04303] → calcium entry signal, replicate 1 = 3.86e7; calcium entry signal, replicate 2 = 4.41e7; resting calcium signal, replicate 1 = 1.83e7; resting calcium signal, replicate 2 = 1.95e7
Obsc (Obscurin) [DRSC04430] → calcium entry signal, replicate 1 = 2.97e7; calcium entry signal, replicate 2 = 3.81e7; resting calcium signal, replicate 1 = 1.71e7; resting calcium signal, replicate 2 = 1.68e7
Obsc (Obscurin) [DRSC22422] → calcium entry signal, replicate 1 = 4.32e7; calcium entry signal, replicate 2 = 3.46e7; resting calcium signal, replicate 1 = 1.97e7; resting calcium signal, replicate 2 = 1.42e7
CG10470 [DRSC02061] → calcium entry signal, replicate 1 = 4.74e7; calcium entry signal, replicate 2 = 4.74e7; resting calcium signal, replicate 1 = 2.31e7; resting calcium signal, replicate 2 = 2.14e7
Pino (Pinocchio) [DRSC00038] → calcium entry signal, replicate 1 = 2.12e7; calcium entry signal, replicate 2 = 2.23e7; resting calcium signal, replicate 1 = 1.37e7; resting calcium signal, replicate 2 = 1.32e7
Pino (Pinocchio) [DRSC00662] → calcium entry signal, replicate 1 = 4.31e7; resting calcium signal, replicate 1 = 2.41e7
CG12836 [DRSC06182] → calcium entry signal, replicate 1 = 2.88e7; calcium entry signal, replicate 2 = 3.47e7; resting calcium signal, replicate 1 = 1.30e7; resting calcium signal, replicate 2 = 1.55e7
Or71a (Odorant receptor 71a) [DRSC11244] → calcium entry signal, replicate 1 = 2.81e7; calcium entry signal, replicate 2 = 4.36e7; resting calcium signal, replicate 1 = 1.45e7; resting calcium signal, replicate 2 = 1.52e7
CG13096 [DRSC02198] → calcium entry signal, replicate 1 = 2.67e7; calcium entry signal, replicate 2 = 3.55e7; resting calcium signal, replicate 1 = 1.39e7; resting calcium signal, replicate 2 = 1.65e7
CCT4 (Chaperonin containing TCP1 subunit 4) [DRSC02865] → calcium entry signal, replicate 1 = 2.95e7; calcium entry signal, replicate 2 = 2.02e7; resting calcium signal, replicate 1 = 1.61e7; resting calcium signal, replicate 2 = 1.09e7
CG8501 [DRSC07198] → calcium entry signal, replicate 1 = 3.73e7; calcium entry signal, replicate 2 = 4.24e7; resting calcium signal, replicate 1 = 1.58e7; resting calcium signal, replicate 2 = 1.99e7
Cpr76Bd (Cuticular protein 76Bd) [DRSC11063] → calcium entry signal, replicate 1 = 3.47e7; calcium entry signal, replicate 2 = 5.38e7; resting calcium signal, replicate 1 = 1.57e7; resting calcium signal, replicate 2 = 2.19e7

Next part; the last 3 above are carried over.
CCT4 (Chaperonin containing TCP1 subunit 4) [DRSC02865] → calcium entry signal, replicate 1 = 2.95e7; calcium entry signal, replicate 2 = 2.02e7; resting calcium signal, replicate 1 = 1.61e7; resting calcium signal, replicate 2 = 1.09e7
CG8501 [DRSC07198] → calcium entry signal, replicate 1 = 3.73e7; calcium entry signal, replicate 2 = 4.24e7; resting calcium signal, replicate 1 = 1.58e7; resting calcium signal, replicate 2 = 1.99e7
Cpr76Bd (Cuticular protein 76Bd) [DRSC11063] → calcium entry signal, replicate 1 = 3.47e7; calcium entry signal, replicate 2 = 5.38e7; resting calcium signal, replicate 1 = 1.57e7; resting calcium signal, replicate 2 = 2.19e7
CG7423 [DRSC20044] → calcium entry signal, replicate 1 = 4.87e7; calcium entry signal, replicate 2 = 3.82e7; resting calcium signal, replicate 1 = 2.27e7; resting calcium signal, replicate 2 = 1.64e7
mab-21 [DRSC18791] → calcium entry signal, replicate 1 = 4.01e7; calcium entry signal, replicate 2 = 3.33e7; resting calcium signal, replicate 1 = 1.80e7; resting calcium signal, replicate 2 = 1.46e7
mRpL24 (mitochondrial ribosomal protein L24) [DRSC03113] → calcium entry signal, replicate 1 = 4.82e7; resting calcium signal, replicate 1 = 1.60e7
Gr47b (Gustatory receptor 47b) [DRSC05275] → calcium entry signal, replicate 1 = 3.59e7; calcium entry signal, replicate 2 = 5.86e7; resting calcium signal, replicate 1 = 1.92e7; resting calcium signal, replicate 2 = 2.55e7
Tim23 (Translocase of inner mitochondrial membrane 23) [DRSC21240] → calcium entry signal, replicate 1 = 5.70e7; calcium entry signal, replicate 2 = 4.25e7; resting calcium signal, replicate 1 = 2.96e7; resting calcium signal, replicate 2 = 1.94e7
AlaRS (Alanyl-tRNA synthetase) [DRSC01851] → calcium entry signal, replicate 1 = 3.64e7; resting calcium signal, replicate 1 = 1.81e7
Ugt303B3 (UDP-glycosyltransferase family 303 member B3) [DRSC14199] → calcium entry signal, replicate 1 = 3.21e7; calcium entry signal, replicate 2 = 4.14e7; resting calcium signal, replicate 1 = 1.80e7; resting calcium signal, replicate 2 = 1.51e7
CG12107 [DRSC06102] → calcium entry signal, replicate 1 = 2.69e7; calcium entry signal, replicate 2 = 2.27e7; resting calcium signal, replicate 1 = 1.10e7; resting calcium signal, replicate 2 = 1.13e7
AdamTS-A (ADAM metallopeptidase with thrombospondin type 1 motif A) [DRSC14992] → calcium entry signal, replicate 1 = 3.64e7; calcium entry signal, replicate 2 = 4.38e7; resting calcium signal, replicate 1 = 1.46e7; resting calcium signal, replicate 2 = 1.92e7
AdamTS-A (ADAM metallopeptidase with thrombospondin type 1 motif A) [DRSC15966] → calcium entry signal, replicate 1 = 2.26e7; calcium entry signal, replicate 2 = 2.63e7; resting calcium signal, replicate 1 = 1.19e7; resting calcium signal, replicate 2 = 3.93e7
Nazo [DRSC14343] → calcium entry signal, replicate 1 = 3.98e7; calcium entry signal, replicate 2 = 4.59e7; resting calcium signal, replicate 1 = 2.00e7; resting calcium signal, replicate 2 = 2.29e7
mew (multiple edematous wings) [DRSC18971] → calcium entry signal, replicate 1 = 4.01e7; calcium entry signal, replicate 2 = 3.08e7; resting calcium signal, replicate 1 = 1.96e7; resting calcium signal, replicate 2 = 1.51e7
mew (multiple edematous wings) [DRSC20352] → calcium entry signal, replicate 1 = 3.83e7; calcium entry signal, replicate 2 = 5.57e7; resting calcium signal, replicate 1 = 1.94e7; resting calcium signal, replicate 2 = 2.57e7
